# According to the supplement of paper PMC10331698:
# ± gives the standard deviation of the averaged measurements. Most entries show no effect beyond the scatter of the controls.
# Legend:
# Assay in all cases: level (log10 ratio to DMSO vehicle control); higher = higher biomarker level / cell amount than vehicle control
# [1] = compound: C=C(C)C(=O)OCCC(F)(F)C(F)(F)C(F)(F)C(F)(F)C(F)(C(F)(F)F)C(F)(F)F [(Perfluoro-5-methylhexyl)ethyl 2-methylprop-2-enoate]; settings: in DMSO
# Experimental: (§1)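 BioMAP Diversity Plus panel of 12 human primary cell co-culture systems (3C, 4H, LPS, SAg, BT, BF4T, BE3C, CASM3C, HDF3CGF, KF3CT, MyoF, Mphg). Compounds were added 1 h before stimulation and left for 24 h (MyoF 48 h; BT 72 h for soluble read-outs or 6 d for IgG). Biomarkers were read by ELISA, cytotoxicity by SRB, PBMC viability and proliferation by Alamar Blue. Each well value was divided by the mean of 8 DMSO control wells on the same plate and log10 transformed; duplicate blinded samples were tested at 4 concentrations.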
# [2] = compound: OCCC(F)(F)C(F)(F)C(F)(F)C(F)(F)F [4:2 Fluorotelomer alcohol]; settings: 2200 nM; in DMSO
# Experimental: as §1
# [3] = compound: C=C(C)C(=O)OCCC(F)(F)C(F)(F)C(F)(F)C(F)(F)C(F)(F)C(F)(F)C(F)(F)C(F)(F)F [8:2 Fluorotelomer methacrylate]; settings: in DMSO
# Experimental: as §1
# Perfluoropinacol = compound: OC(C(F)(F)F)(C(F)(F)F)C(O)(C(F)(F)F)C(F)(F)F [Perfluoropinacol]; settings: in DMSO
# Experimental: as §1
# Tetrafluorosuccinic acid = compound: O=C(O)C(F)(F)C(F)(F)C(=O)O [Tetrafluorosuccinic acid]; settings: 2200 nM; in DMSO
# Experimental: as §1
# Octafluoroadipamide = compound: NC(=O)C(F)(F)C(F)(F)C(F)(F)C(F)(F)C(N)=O [Octafluoroadipamide]; settings: 2200 nM; in DMSO
# Experimental: as §1
# [4] = compound: O=C(O)CCC(F)(F)C(F)(F)C(F)(F)C(F)(F)C(F)(F)F [2H,2H,3H,3H-Perfluorooctanoic acid]; settings: 2200 nM; in DMSO
# Experimental: as §1
# [5] = compound: O=S(=O)(O)CCC(F)(F)C(F)(F)C(F)(F)C(F)(F)C(F)(F)C(F)(F)F [6:2 Fluorotelomer sulfonic acid]; settings: in DMSO
# Experimental: as §1
# [6] = compound: O=C(O)C(F)(F)C(F)(F)C(F)(F)C(F)(F)C(F)(F)C(F)(F)C(F)(F)C(F)(F)Cl [9-Chloro-perfluorononanoic acid]; settings: in DMSO
# Experimental: as §1
# [7] = compound: NS(=O)(=O)C(F)(F)C(F)(F)C(F)(F)C(F)(F)C(F)(F)C(F)(F)F [Perfluorohexanesulfonamide]; settings: 2200 nM; in DMSO
# Experimental: as §1
# Nonafluoropentanamide = compound: NC(=O)C(F)(F)C(F)(F)C(F)(F)C(F)(F)F [Nonafluoropentanamide]; settings: 2200 nM; in DMSO
# Experimental: as §1
# [8] = compound: FC(F)(F)C(F)(F)C(F)(F)C(F)(F)C(F)(F)CCI [1-Iodo-1H,1H,2H,2H-perfluoroheptane]; settings: 2200 nM; in DMSO
# Experimental: as §1
# [9] = compound: COC(=O)CCC(F)(F)C(F)(F)C(F)(F)C(F)(F)F [Methyl 2H,2H,3H,3H-perfluoroheptanoate]; settings: 2200 nM; in DMSO
# Experimental: as §1
# [10] = compound: O=S(=O)(O)C(F)(F)C(F)(F)OC(F)(F)C(F)(F)F [Perfluoro(2-ethoxyethane)sulfonic acid]; settings: 2200 nM; in DMSO
# Experimental: as §1
Test System,level (log10) ([1]; 740 nM),level (log10) ([1]; 2200 nM),level (log10) ([1]; 6700 nM),level (log10) ([1]; 20000 nM),level (log10) [2],level (log10) ([3]; 740 nM),level (log10) ([3]; 2200 nM),level (log10) (Perfluoropinacol; 2200 nM),level (log10) (Perfluoropinacol; 6700 nM),level (log10) (Perfluoropinacol; 20000 nM),level (log10) (Tetrafluorosuccinic acid),level (log10) (Octafluoroadipamide),level (log10) [4],level (log10) ([5]; 2200 nM),level (log10) ([5]; 6700 nM),level (log10) ([5]; 20000 nM),level (log10) ([5]; 60000 nM),level (log10) ([6]; 2200 nM),level (log10) ([6]; 6700 nM),level (log10) ([6]; 20000 nM),level (log10) [7],level (log10) (Nonafluoropentanamide),level (log10) [8],level (log10) [9],level (log10) [10]
CASM3C:CD106/VCAM-1,-0.021 ± 0.018,-0.018 ± 0.025,-0.017 ± 0.014,-0.0175 ± 0.026,0.01 ± 0.0099,0.007 ± 0.051,0.0095 ± 0.028,-0.0065 ± 0.019,-0.028 ± 0.0042,-0.0385 ± 0.015,0.0115 ± 0.0021,-0.0025 ± 0.047,-0.0085 ± 0.005,-0.016 ± 0.023,-0.008 ± 0.011,-0.0325 ± 0.022,-0.0605 ± 0.026,-0.014 ± 0.0028,-0.029 ± 0.0014,-0.027 ± 0.016,-0.0135 ± 0.018,-0.013 ± 0.02,0.003 ± 0.023,-0.0195 ± 0.005,0.003 ± 0.011
3C:Proliferation,-0.0305 ± 0.063,0.006 ± 0.0028,0.004 ± 0.052,-0.0305 ± 0.0021,-0.0465 ± 0.046,0.0175 ± 0.047,0.003 ± 0.057,-0.0155 ± 0.0064,-0.151 ± 0.0028,-0.441 ± 0.086,-0.025 ± 0.034,-0.0175 ± 0.013,-0.0405 ± 0.0078,-0.0005 ± 0.026,0.0055 ± 0.0021,0.012 ± 0.027,0.0305 ± 0.039,0.013 ± 0.051,0.016 ± 0.079,0.019 ± 0.041,-0.0255 ± 0.039,-0.0155 ± 0.029,-0.003 ± 0.044,-0.0575 ± 0.03,-0.0145 ± 0.019
3C:HLA-DR,-0.0065 ± 0.0035,-0.0135 ± 0.011,-0.004 ± 0.016,-0.023 ± 0.02,0.0135 ± 0.0064,0.0025 ± 0.00071,0.005 ± 0.0028,-0.003 ± 0.011,-0.0405 ± 0.0035,-0.132 ± 0.028,0 ± 0.034,0.0055 ± 0.039,-0.004 ± 0.021,-0.001 ± 0.0057,-0.0075 ± 0.025,-0.0145 ± 0.0078,-0.0065 ± 0.0035,0.013 ± 0.0057,-0.0105 ± 0.0078,0.004 ± 0.021,-0.0005 ± 0.011,-0.0145 ± 0.049,0.001 ± 0.021,-0.014 ± 0.014,0.0015 ± 0.018
BE3C:IL-1alpha,-0.0145 ± 0.011,-0.013 ± 0.013,-0.017 ± 0.0057,-0.009 ± 0.0014,-0.012 ± 0.0085,0.0045 ± 0.022,0.007 ± 0.0014,-0.0155 ± 0.005,-0.041 ± 0.021,-0.093 ± 0.0071,0.0345 ± 0.042,0.012 ± 0.0071,-0.0085 ± 0.0035,-0.009 ± 0.0085,-0.0095 ± 0.021,-0.005 ± 0.0099,-0.0005 ± 0.0078,-0.0045 ± 0.0035,0.023 ± 0.017,-0.0765 ± 0.026,-0.009 ± 0.0014,0.004 ± 0.037,-0.0195 ± 0.013,0.0185 ± 0.011,0.0115 ± 0.005
LPS:CD40,0.079 ± 0.1,0.0345 ± 0.11,0.07 ± 0.038,-0.0015 ± 0.016,-0.0385 ± 0.0035,0.002 ± 0.014,0.024 ± 0.042,-0.022 ± 0.031,-0.0285 ± 0.073,-0.16 ± 0.03,-0.0205 ± 0.028,-0.0335 ± 0.016,0.0295 ± 0.049,0.031 ± 0.0071,0.025 ± 0.048,0.0165 ± 0.037,-0.015 ± 0.024,0.028 ± 0.054,0.02 ± 0.064,0.055 ± 0.0071,-0.008 ± 0.073,-0.032 ± 0.0028,0.072 ± 0.059,-0.0075 ± 0.087,0.046 ± 0.047
SAg:CD62E/E-Selectin,-0.0525 ± 0.073,-0.008 ± 0.044,0.0215 ± 0.011,0.007 ± 0.014,0.0035 ± 0.005,0.0055 ± 0.025,-0.012 ± 0.016,0.0145 ± 0.018,0.008 ± 0.0071,-0.15 ± 0.0021,-0.018 ± 0.013,0.0125 ± 0.049,0.014 ± 0.018,-0.0015 ± 0.023,-0.008 ± 0.0057,-0.007 ± 0.013,0.038 ± 0.013,-0.007 ± 0.011,-0.017 ± 0.0042,0.017 ± 0.014,0.017 ± 0.061,0.0165 ± 0.016,0.0285 ± 0.012,-0.0095 ± 0.0064,-0.001 ± 0.033
BF4T:MMP-3,-0.093,-0.046 ± 0.0085,-0.0975 ± 0.022,-0.057 ± 0.041,0.0185 ± 0.036,0.0185 ± 0.019,0.014 ± 0.011,-0.008 ± 0.051,-0.013 ± 0.04,-0.008 ± 0.0057,0.0195 ± 0.03,-0.007 ± 0.024,0.024 ± 0.0071,0.035 ± 0.085,-0.0095 ± 0.074,-0.0015 ± 0.0035,0.0515 ± 0.025,0.0075 ± 0.049,0.0535 ± 0.023,0.118 ± 0.035,-0.014 ± 0.035,-0.028 ± 0.0099,-0.017 ± 0.02,-0.0115 ± 0.042,0.0235 ± 0.029
BF4T:uPA,-0.009 ± 0.0028,-0.0425 ± 0.032,-0.0295 ± 0.0064,-0.063 ± 0.0014,-0.022 ± 0.024,0.0105 ± 0.0092,-0.009 ± 0.0042,-0.0125 ± 0.0078,-0.0305 ± 0.019,-0.0365 ± 0.0064,0.003,-0.0275 ± 0.0078,-0.0015 ± 0.026,0.009 ± 0.028,0.0085 ± 0.019,-0.013 ± 0.0028,-0.001 ± 0.018,-0.006 ± 0.011,-0.0045 ± 0.012,-0.01 ± 0.0071,-0.0065 ± 0.0092,-0.013 ± 0.0042,0.008 ± 0.013,-0.012 ± 0.031,0.0095 ± 0.023
KF3CT:IL-1alpha,-0.0145 ± 0.0021,-0.003 ± 0.021,-0.014 ± 0.0028,-0.0225 ± 0.0035,-0.0025 ± 0.037,-0.0375 ± 0.005,-0.024,0.017 ± 0.013,0.0765 ± 0.028,0.155 ± 0.032,0.0185 ± 0.021,0.0035 ± 0.022,-0.04 ± 0.0085,-0.0165 ± 0.0092,0.0115 ± 0.016,0.0005 ± 0.016,-0.0255 ± 0.039,0.0005 ± 0.018,-0.0295 ± 0.042,-0.056 ± 0.031,0.0145 ± 0.026,0.0065 ± 0.018,0.004 ± 0.0099,0.011 ± 0.055,-0.0245 ± 0.018
SAg:CD69,-0.0165 ± 0.018,-0.0195 ± 0.023,-0.0095 ± 0.015,-0.0335 ± 0.033,-0.0165 ± 0.0035,-0.009 ± 0.02,-0.0295 ± 0.00071,-0.015 ± 0.0085,-0.039 ± 0.017,-0.19 ± 0.033,0.0055 ± 0.086,-0.0065 ± 0.022,-0.0185 ± 0.047,-0.0205 ± 0.046,-0.0245 ± 0.059,-0.04 ± 0.024,-0.04 ± 0.0057,-0.0285 ± 0.018,-0.0405 ± 0.043,-0.035 ± 0.028,-0.015 ± 0.016,-0.0155 ± 0.00071,-0.0045 ± 0.019,-0.026 ± 0.069,0.0055 ± 0.005

# Record cards, as listed above. Order of values: level (log10) ([1]; 740 nM)	level (log10) ([1]; 2200 nM)	level (log10) ([1]; 6700 nM)	level (log10) ([1]; 20000 nM)	level (log10) [2]	level (log10) ([3]; 740 nM)	level (log10) ([3]; 2200 nM)	level (log10) (Perfluoropinacol; 2200 nM)	level (log10) (Perfluoropinacol; 6700 nM)	level (log10) (Perfluoropinacol; 20000 nM)	level (log10) (Tetrafluorosuccinic acid)	level (log10) (Octafluoroadipamide)	level (log10) [4]	level (log10) ([5]; 2200 nM)	level (log10) ([5]; 6700 nM)	level (log10) ([5]; 20000 nM)	level (log10) ([5]; 60000 nM)	level (log10) ([6]; 2200 nM)	level (log10) ([6]; 6700 nM)	level (log10) ([6]; 20000 nM)	level (log10) [7]	level (log10) (Nonafluoropentanamide)	level (log10) [8]	level (log10) [9]	level (log10) [10]
# LPS:CD40 is listed with 0.079 ± 0.1	0.0345 ± 0.11	0.07 ± 0.038	-0.0015 ± 0.016	-0.0385 ± 0.0035	0.002 ± 0.014	0.024 ± 0.042	-0.022 ± 0.031	-0.0285 ± 0.073	-0.16 ± 0.03	-0.0205 ± 0.028	-0.0335 ± 0.016	0.0295 ± 0.049	0.031 ± 0.0071	0.025 ± 0.048	0.0165 ± 0.037	-0.015 ± 0.024	0.028 ± 0.054	0.02 ± 0.064	0.055 ± 0.0071	-0.008 ± 0.073	-0.032 ± 0.0028	0.072 ± 0.059	-0.0075 ± 0.087	0.046 ± 0.047
# BE3C:IL-1alpha is listed with -0.0145 ± 0.011	-0.013 ± 0.013	-0.017 ± 0.0057	-0.009 ± 0.0014	-0.012 ± 0.0085	0.0045 ± 0.022	0.007 ± 0.0014	-0.0155 ± 0.005	-0.041 ± 0.021	-0.093 ± 0.0071	0.0345 ± 0.042	0.012 ± 0.0071	-0.0085 ± 0.0035	-0.009 ± 0.0085	-0.0095 ± 0.021	-0.005 ± 0.0099	-0.0005 ± 0.0078	-0.0045 ± 0.0035	0.023 ± 0.017	-0.0765 ± 0.026	-0.009 ± 0.0014	0.004 ± 0.037	-0.0195 ± 0.013	0.0185 ± 0.011	0.0115 ± 0.005
